At least one compound was matched to its structure with a doubt left.
Test system: γc
Assay: Effects of other statin drugs on the γc level
Format: cell-based
Details: other HMG-CoA reductase inhibitor statins
Excerpt: Statin drugs, such as lovastatin, simvastatin, fluvastatin sodium and rosuvastatin calcium, are thought to target HMG-CoA reductase. Therefore, we examined the effects of these statin drugs on the γc level.

Compound	γc level
CC(C)n1c(/C=C/C(O)CC(O)CC(=O)O)c(-c2ccc(F)cc2)c2ccccc21 (centres unmarked) [fluvastatin sodium]	up-regulated the level of γc
CCC(C)(C)C(=O)O[C@H]1C[C@@H](C)C=C2C=C[C@H](C)[C@H](CC[C@@H]3C[C@@H](O)CC(=O)O3)[C@H]21 [simvastatin]	up-regulated the level of γc
